Source: article PMC11001723
Results are given in words; binding and its absence hold for the method and conditions named. Binding seen in cells or lysates may run through a third protein. These calls come from enrichment with a bait or labelling near it, and not all partners need be listed.

Amino acid sequences for entries named in this document (tags omitted).
UniProt P28741: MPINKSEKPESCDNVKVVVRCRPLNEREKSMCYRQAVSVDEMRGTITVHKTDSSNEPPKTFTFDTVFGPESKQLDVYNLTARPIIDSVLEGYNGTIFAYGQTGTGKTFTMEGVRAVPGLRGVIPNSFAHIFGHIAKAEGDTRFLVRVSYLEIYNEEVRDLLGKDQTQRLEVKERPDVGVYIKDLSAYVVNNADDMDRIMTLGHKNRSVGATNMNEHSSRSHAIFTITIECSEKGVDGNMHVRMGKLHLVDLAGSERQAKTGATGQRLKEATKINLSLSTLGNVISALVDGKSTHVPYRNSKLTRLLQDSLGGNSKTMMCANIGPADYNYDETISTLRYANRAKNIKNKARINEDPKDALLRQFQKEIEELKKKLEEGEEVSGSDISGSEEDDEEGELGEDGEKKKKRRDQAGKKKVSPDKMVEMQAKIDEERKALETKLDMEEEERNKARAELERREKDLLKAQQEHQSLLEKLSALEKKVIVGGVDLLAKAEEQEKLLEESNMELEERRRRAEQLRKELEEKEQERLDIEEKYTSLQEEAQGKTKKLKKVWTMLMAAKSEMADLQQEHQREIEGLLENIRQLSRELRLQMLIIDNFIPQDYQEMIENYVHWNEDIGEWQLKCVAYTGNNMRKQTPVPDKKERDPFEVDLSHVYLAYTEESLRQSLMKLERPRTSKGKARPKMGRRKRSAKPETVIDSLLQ
UniProt Q9QWK5: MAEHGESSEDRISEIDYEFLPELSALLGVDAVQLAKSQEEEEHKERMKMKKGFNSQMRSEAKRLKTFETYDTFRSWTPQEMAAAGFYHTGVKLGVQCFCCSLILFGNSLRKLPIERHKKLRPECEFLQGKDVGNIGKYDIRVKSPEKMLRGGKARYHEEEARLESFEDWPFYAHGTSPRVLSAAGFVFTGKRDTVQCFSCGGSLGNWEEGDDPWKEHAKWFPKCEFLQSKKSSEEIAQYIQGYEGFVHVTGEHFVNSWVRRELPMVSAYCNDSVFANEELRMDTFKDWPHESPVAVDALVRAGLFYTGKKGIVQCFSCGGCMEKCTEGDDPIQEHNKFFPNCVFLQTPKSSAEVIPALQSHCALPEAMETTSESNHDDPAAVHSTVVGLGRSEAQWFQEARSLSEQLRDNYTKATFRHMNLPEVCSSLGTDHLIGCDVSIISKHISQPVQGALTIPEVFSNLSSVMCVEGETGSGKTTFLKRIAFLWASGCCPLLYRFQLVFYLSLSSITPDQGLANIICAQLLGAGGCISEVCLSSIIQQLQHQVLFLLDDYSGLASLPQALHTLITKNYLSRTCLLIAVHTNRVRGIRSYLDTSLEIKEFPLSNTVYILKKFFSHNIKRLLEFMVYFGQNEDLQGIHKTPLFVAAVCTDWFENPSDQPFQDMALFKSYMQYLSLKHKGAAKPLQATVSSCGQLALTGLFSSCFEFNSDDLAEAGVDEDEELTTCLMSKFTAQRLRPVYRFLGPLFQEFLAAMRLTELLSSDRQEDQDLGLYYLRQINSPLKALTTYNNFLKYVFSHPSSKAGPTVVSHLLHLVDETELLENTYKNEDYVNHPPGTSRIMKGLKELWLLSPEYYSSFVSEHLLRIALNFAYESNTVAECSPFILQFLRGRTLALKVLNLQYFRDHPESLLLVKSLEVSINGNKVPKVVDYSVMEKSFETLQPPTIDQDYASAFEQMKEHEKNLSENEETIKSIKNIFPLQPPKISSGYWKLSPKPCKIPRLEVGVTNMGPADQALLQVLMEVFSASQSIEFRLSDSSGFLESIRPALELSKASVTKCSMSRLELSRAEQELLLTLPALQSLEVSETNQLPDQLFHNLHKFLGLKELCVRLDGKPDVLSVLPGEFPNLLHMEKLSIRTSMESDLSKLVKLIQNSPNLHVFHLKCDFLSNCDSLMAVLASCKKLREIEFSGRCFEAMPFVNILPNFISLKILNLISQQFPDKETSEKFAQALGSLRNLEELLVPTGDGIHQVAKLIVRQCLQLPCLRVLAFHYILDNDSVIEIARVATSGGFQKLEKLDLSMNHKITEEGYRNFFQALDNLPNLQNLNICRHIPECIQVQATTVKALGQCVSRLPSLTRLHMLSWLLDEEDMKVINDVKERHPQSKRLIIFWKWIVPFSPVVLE
UniProt E9Q7G0: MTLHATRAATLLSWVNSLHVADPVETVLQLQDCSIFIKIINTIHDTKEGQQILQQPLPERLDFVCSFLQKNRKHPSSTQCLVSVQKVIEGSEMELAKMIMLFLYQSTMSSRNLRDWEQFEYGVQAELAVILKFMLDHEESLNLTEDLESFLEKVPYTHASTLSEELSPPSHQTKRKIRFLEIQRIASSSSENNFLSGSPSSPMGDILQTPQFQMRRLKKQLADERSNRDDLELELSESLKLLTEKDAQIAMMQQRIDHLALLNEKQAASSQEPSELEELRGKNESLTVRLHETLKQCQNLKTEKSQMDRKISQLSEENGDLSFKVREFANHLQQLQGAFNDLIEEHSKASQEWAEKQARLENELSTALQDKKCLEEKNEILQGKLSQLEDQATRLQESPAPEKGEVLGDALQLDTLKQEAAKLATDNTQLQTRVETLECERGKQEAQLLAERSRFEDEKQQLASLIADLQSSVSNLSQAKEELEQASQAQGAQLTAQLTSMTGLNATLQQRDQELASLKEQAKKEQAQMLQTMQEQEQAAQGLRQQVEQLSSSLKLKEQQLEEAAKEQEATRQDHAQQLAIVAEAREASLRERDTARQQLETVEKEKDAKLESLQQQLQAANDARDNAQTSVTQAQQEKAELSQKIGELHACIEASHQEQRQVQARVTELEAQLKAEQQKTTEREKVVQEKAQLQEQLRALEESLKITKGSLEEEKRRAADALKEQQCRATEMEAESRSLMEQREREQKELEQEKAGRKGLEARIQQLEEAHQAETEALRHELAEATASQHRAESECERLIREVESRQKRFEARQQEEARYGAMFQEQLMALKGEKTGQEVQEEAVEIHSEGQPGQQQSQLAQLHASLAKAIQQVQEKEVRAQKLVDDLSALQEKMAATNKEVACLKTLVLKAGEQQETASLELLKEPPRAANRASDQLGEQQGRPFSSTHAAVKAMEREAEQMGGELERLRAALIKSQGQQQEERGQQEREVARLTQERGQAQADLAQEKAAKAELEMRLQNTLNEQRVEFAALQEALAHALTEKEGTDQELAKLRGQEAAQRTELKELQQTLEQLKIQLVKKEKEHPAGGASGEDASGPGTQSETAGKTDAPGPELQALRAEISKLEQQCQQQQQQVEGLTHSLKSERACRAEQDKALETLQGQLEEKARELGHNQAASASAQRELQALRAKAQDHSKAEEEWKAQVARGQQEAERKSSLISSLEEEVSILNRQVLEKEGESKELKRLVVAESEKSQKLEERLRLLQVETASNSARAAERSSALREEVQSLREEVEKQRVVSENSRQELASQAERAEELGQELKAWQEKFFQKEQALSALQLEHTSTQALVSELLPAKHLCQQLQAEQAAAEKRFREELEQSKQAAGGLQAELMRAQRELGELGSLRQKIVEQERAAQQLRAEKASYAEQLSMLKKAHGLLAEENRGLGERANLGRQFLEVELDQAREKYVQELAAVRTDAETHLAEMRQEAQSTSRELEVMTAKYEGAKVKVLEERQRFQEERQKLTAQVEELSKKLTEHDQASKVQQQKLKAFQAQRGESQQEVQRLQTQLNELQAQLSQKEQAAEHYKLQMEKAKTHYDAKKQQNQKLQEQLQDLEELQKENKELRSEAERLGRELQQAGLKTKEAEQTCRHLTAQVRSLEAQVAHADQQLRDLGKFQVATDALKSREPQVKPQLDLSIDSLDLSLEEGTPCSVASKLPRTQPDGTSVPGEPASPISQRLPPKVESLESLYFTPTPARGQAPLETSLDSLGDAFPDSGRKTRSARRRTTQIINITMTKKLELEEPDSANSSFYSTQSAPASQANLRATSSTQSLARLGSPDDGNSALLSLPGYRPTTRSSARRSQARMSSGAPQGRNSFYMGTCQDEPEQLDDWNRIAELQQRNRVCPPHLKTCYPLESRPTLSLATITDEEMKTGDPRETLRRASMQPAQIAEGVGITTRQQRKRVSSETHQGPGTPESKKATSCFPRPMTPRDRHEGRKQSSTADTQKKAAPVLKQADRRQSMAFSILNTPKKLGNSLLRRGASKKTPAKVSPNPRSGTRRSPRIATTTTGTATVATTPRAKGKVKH

Biological target: Kinesin family member 3A (mouse (endogenous in ovary)) (UniProt P28741)
Test: affinity purification with mass spectrometry; rabbit anti-KIF3A antibody on Dynabeads Protein G, incubated with lysate of 6 mouse ovaries for 6 h at 4 °C; eluate analysed by LC-MS (Mascot search)

binding	Substance
binds	BIR1A (from UniProt Q9QWK5 1-1403)
binds	nuclear mitotic apparatus protein (from UniProt E9Q7G0 1-2094)
